# Laboratory results taken from PMC7819943, “Rice protein-binding microarrays: a tool to detect cis-acting elements near promoter regions in rice”.
# Amino acid sequences for entries named in this document (tags omitted).
# UniProt Q0JBA9, entry or part of it: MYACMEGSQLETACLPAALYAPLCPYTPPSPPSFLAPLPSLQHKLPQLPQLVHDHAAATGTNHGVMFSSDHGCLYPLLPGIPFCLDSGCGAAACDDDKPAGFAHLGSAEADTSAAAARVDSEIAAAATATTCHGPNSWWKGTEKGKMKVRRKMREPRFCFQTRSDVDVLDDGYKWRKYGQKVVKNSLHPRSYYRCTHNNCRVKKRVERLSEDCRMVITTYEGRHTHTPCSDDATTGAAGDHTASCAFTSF
# The other results are listed elsewhere or left out.
# Biological target: OsWRKY34 (Oryza sativa, UniProt Q0JBA9 1-250)
# Experiment: protein-binding microarray (RPBM); PBS, 2% BSA, 51.3 ng/ul salmon testes DNA, 50 uM zinc acetate, 200 nM TF, 25 C, 1 h; high values mean tight binding
# Settings: protein: recombinant; tags: N-terminal polyhistidine and DsRed monomer fusion (pET32a); label: CyDye5-dUTP incorporated in the synthesized complementary strand; 3' TTTTT single-stranded linker to array surface; dsDNA, one strand shown
# Method in brief: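 Transcription factors were made in E. coli BL21-CodonPlus as N-terminal fusions to a polyhistidine tag and DsRed, then purified on Ni–NTA. After primer extension with Cy5-dUTP and blocking with 2% BSA, a custom Agilent array was exposed for 1 h at 25 °C to 200 nM protein in PBS, 2% BSA, salmon testes DNA and 50 µM zinc acetate. Washed arrays were scanned on an Axon 4000B, and the binding signal is per-feature fluorescence intensity in arbitrary units.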
row,Sequence,binding signal
1,AATTTTATTGAGGCTAGGGAATTTGTTGTTGATCTCTGTCCGGAGTCACCTAGTGCAG,8170 fluorescence intensity (a.u.)
2,AATTCCGATCCCATTGGTCATTGACCACCGGGCTGGTTGCCGGAGTCACCTAGTGCAG,10600 fluorescence intensity (a.u.)
3,CCTTTCTGTTGTTTTAAGAGTCAATGTTGCACTTCATATCCGGAGTCACCTAGTGCAG,8780 fluorescence intensity (a.u.)
4,ATGCTAGGCCTCATTGTTTTCTTTGGTATTTTGAGTTCTCCGGAGTCACCTAGTGCAG,10100 fluorescence intensity (a.u.)
5,GTCCCGTATCATATTGCCGTCTCAGCGACCCAGCCGCCGCCGGAGTCACCTAGTGCAG,8080 fluorescence intensity (a.u.)
6,ACATATACTACACTTTAATATCTGATCCCACCTGTCATACCGGAGTCACCTAGTGCAG,9270 fluorescence intensity (a.u.)
7,TCGGTCCCTCAACATTTGACGTTGTTGACTTTTTAAAATTCGGAGTCACCTAGTGCAG,11400 fluorescence intensity (a.u.)
8,GTCGTCGTCTACTTCGCTGCCGCGTCCTCCATCCTCCATGCGGAGTCACCTAGTGCAG,12400 fluorescence intensity (a.u.)
9,CCTCGCGCCATCAACACAACCAACGTCCCATTGCCACCTTCGGAGTCACCTAGTGCAG,11300 fluorescence intensity (a.u.)
10,CATTTGATGGAGCTGGGCTTGTGGGTAATGTTAGCCTGTCCGGAGTCACCTAGTGCAG,8390 fluorescence intensity (a.u.)
11,TCAGCTTTCTCTGTTGATTCACCTGCCTTATCTGTTCTATCGGAGTCACCTAGTGCAG,8930 fluorescence intensity (a.u.)
12,ACCAAAACCAACCATTGACAATTTGACCTCTGCAATCTGTCGGAGTCACCTAGTGCAG,8710 fluorescence intensity (a.u.)
13,CCTCCGCCGCCTTCCACCCTCTCTCTCGAGAGCCCAGATCCGGAGTCACCTAGTGCAG,8570 fluorescence intensity (a.u.)
14,TATATGTTGATACATGTGCACTCTTCTAATCAAGTGATCACGGAGTCACCTAGTGCAG,9100 fluorescence intensity (a.u.)
15,CATTTTTCTTTGCCAACCGATCTGCCCGTCTCCCGCCGCCCGGAGTCACCTAGTGCAG,8920 fluorescence intensity (a.u.)
16,CTAGGTTTCCTATATTTCTTCACACATCAATCATTCTTTGCGGAGTCACCTAGTGCAG,9070 fluorescence intensity (a.u.)
17,CTCCACCTCTGATCCTACTCCGGCTCTCCGGCGACACCGCCGGAGTCACCTAGTGCAG,11400 fluorescence intensity (a.u.)
18,AGGTGGAGGTGGTCTCAAGGGAAGCATGCACTAGCTTTTACGGAGTCACCTAGTGCAG,8160 fluorescence intensity (a.u.)
19,TTTCTATATGGACTCTGCTTTTTCTTTTTCTCCGATTAATCGGAGTCACCTAGTGCAG,10600 fluorescence intensity (a.u.)
20,TTGAAATGTCATCTTCTCAGTTCAGCAGCTCCATTTGTTACGGAGTCACCTAGTGCAG,9920 fluorescence intensity (a.u.)
21,TGCATTGATCTTCCACAGAGCTTTCCAGCTTTTCTGACTCCGGAGTCACCTAGTGCAG,9470 fluorescence intensity (a.u.)
22,CGAGTGGTGGGGTGGGGAGTCGCGTGCCCGCGCCGAGACCCGGAGTCACCTAGTGCAG,11700 fluorescence intensity (a.u.)
23,TGTTTGGTAACTCGAGGGAAGGGGATTGGGAGTTTACACGCGGAGTCACCTAGTGCAG,8280 fluorescence intensity (a.u.)
24,AGGGTTTGGCACGGGCGGGGCGGAGGCGCGCTGCACACATCGGAGTCACCTAGTGCAG,12600 fluorescence intensity (a.u.)
25,TACGTCCGCGAATACTGCTTTGTTTTTTAGCGCTTGATCACGGAGTCACCTAGTGCAG,9320 fluorescence intensity (a.u.)
26,ACGGGCTTAAACACATCTTACATTCTCATCACCAAGCAAACGGAGTCACCTAGTGCAG,11400 fluorescence intensity (a.u.)
27,TTATAAATACATACTGCATCATTAATGTTTTCCTCACATTCGGAGTCACCTAGTGCAG,8480 fluorescence intensity (a.u.)

row,Sequence,binding signal
1,GAGAGGGGATGGGGTTGAGTGGTGGGGCCTATGATTGGCACGGAGTCACCTAGTGCAG,13300 fluorescence intensity (a.u.)
2,CACATCGTTTTTCCATGCACACGCTTCCTAAACTGCTAAACGGAGTCACCTAGTGCAG,8480 fluorescence intensity (a.u.)
3,CTCTCTCTCTCCTCTGCCTTTTTAAGCAGCCACACGTCGACGGAGTCACCTAGTGCAG,8160 fluorescence intensity (a.u.)
4,ATTTGATGCCACTTTTAATTTACTTTCCCATTTTAATGTACGGAGTCACCTAGTGCAG,8090 fluorescence intensity (a.u.)
5,TGTTAATTCTTACTGCCGGCACTTCTTTTTTTGCTGGACACGGAGTCACCTAGTGCAG,8450 fluorescence intensity (a.u.)
6,GATACTACCTCCGTCCCAAAATATAGCAACTTTTGATTATCGGAGTCACCTAGTGCAG,8120 fluorescence intensity (a.u.)
7,TGGTTTGCTCACTTCATCACAGGTTTGCTCCCATACTTCTCGGAGTCACCTAGTGCAG,10200 fluorescence intensity (a.u.)
8,AAAGCTCGATTTGTCGTACTCACACACCTCACCACACGCCCGGAGTCACCTAGTGCAG,8720 fluorescence intensity (a.u.)
9,AATATTTTAATGGGTGCAGTTTCCATGAGCTAATTTCCATCGGAGTCACCTAGTGCAG,9820 fluorescence intensity (a.u.)
10,AAGGAAGGTGGTTTGACTTTAGTTAGGCGTTTCATGAGCCCGGAGTCACCTAGTGCAG,8930 fluorescence intensity (a.u.)
11,TTCAGTTTTCTCTCGAGTCAACGGCGGTTTGGAAGCAGCACGGAGTCACCTAGTGCAG,8700 fluorescence intensity (a.u.)
12,TGGCTCAGCGACACCGCCCGTTCACACGCCTCCACTGCACCGGAGTCACCTAGTGCAG,8750 fluorescence intensity (a.u.)
13,ACTTGTCATTGGGTTTAGGTAACTCCTCAAGCTCATCAGACGGAGTCACCTAGTGCAG,8720 fluorescence intensity (a.u.)
14,ATAAATGACTTTTTACCTACTCCGCCACACCTTTTACTACCGGAGTCACCTAGTGCAG,8170 fluorescence intensity (a.u.)
15,TGTAAGTCATTCCACCATTTCCCACATTCATATTGATGCCCGGAGTCACCTAGTGCAG,8890 fluorescence intensity (a.u.)
16,TAGTTGTGGTGCTAATGTCTCTAACGGTTCTGCGGAGAATCGGAGTCACCTAGTGCAG,9660 fluorescence intensity (a.u.)
17,AAAACATACCACTTCAAATTTTTGTTCTTTTTCTTGTTTCCGGAGTCACCTAGTGCAG,10500 fluorescence intensity (a.u.)
18,CTGGATACTGCACAAGAGATGACAGTTCAACACTTGACAGCGGAGTCACCTAGTGCAG,9570 fluorescence intensity (a.u.)
19,TTGTTTGATATATTCTATTTGCTTTGATATCTTAGTATAGCGGAGTCACCTAGTGCAG,8390 fluorescence intensity (a.u.)
20,GAGAGATTCCTGGCTTCCTGCCTCACGCGCACGCACACCACGGAGTCACCTAGTGCAG,8230 fluorescence intensity (a.u.)
21,TGTGGTCAAATATTTTTGGGTTCAACTTCACCATTCCCTTCGGAGTCACCTAGTGCAG,10800 fluorescence intensity (a.u.)
22,ATCTATCCACGGTTCAGCTCTGCTATTGGTCTCAGTGTCCCGGAGTCACCTAGTGCAG,8140 fluorescence intensity (a.u.)
23,CGAAGGGGAGGGTATTTGGTTAATTGTGAAACGTAAAAGTCGGAGTCACCTAGTGCAG,10300 fluorescence intensity (a.u.)
24,CCACACCCTGATGGCGCCGCCATCGTTCTTTTCTGGAGTTCGGAGTCACCTAGTGCAG,9750 fluorescence intensity (a.u.)
25,GTTCCAAAGTTTTTTTTTTTCAAACTTTCAACTTTCCATCCGGAGTCACCTAGTGCAG,8400 fluorescence intensity (a.u.)
26,TACCGTCCGATCCGGCTCCCATCTATATATTCCACTCGCTCGGAGTCACCTAGTGCAG,9220 fluorescence intensity (a.u.)
27,AACGACCAATATTGGTATGTACTACCTCTGTTTCTTATTACGGAGTCACCTAGTGCAG,9420 fluorescence intensity (a.u.)

# Look-ups from above:
# In binding signal, TTCAGTTTTCTCTCGAGTCAACGGCGGTTTGGAAGCAGCACGGAGTCACCTAGTGCAG is entered as 8700 fluorescence intensity (a.u.)
# In binding signal, CGAAGGGGAGGGTATTTGGTTAATTGTGAAACGTAAAAGTCGGAGTCACCTAGTGCAG is entered as 10300 fluorescence intensity (a.u.)
